# Paper doi:10.1101/343046 (bioRxiv, 2018)
# These are yes or no findings as the source states them, for the method shown. Binding calls can cover weak binding; strength is not graded here. Sequences can lack the tags named with a protein.
# Target: taxol stabilized microtubules
# Experiment: co-sedimentation
row,binding,Binder
1,binds,"His6-KIF15-N420 (domain or fragment, human, UniProt Q9NS87 1-420, looked up) MAPGCKTELRSVTNGQSNQPSNEGDAIKVFVRIRPPAERSGSADGEQNLCLSVLSSTSLRLHSNPEPKTFTFDHVADVDTTQESVFATVAKSIVESCMSGYNGTIFAYGQTGSGKTFTMMGPSESDNFSHNLRGVIPRSFEYLFSLIDREKEKAGAGKSFLCKCSFIEIYNEQIYDLLDSASAGLYLREHIKKGVFVVGAVEQVVTSAAEAYQVLSGGWRNRRVASTSMNRESSRSHAVFTITIESMEKSNEIVNIRTSLLNLVDLAGSERQKDTHAEGMRLKEAGNINRSLSCLGQVITALVDVGNGKQRHVCYRDSKLTFLLRDSLGGNAKTAIIANVHPGSRCFGETLSTLNFAQRAKLIKNKAVVNEDTQGNVSQLQAEVKRLKEQLAELASGQTPPESFLTRDKKKTNYMEYFQE"
2,binds,"KIF18A-N480-GFP-His6 (domain or fragment, human, UniProt Q8NI77 1-480, looked up) MSVTEEDLCHHMKVVVRVRPENTKEKAAGFHKVVHVVDKHILVFDPKQEEVSFFHGKKTTNQNVIKKQNKDLKFVFDAVFDETSTQSEVFEHTTKPILRSFLNGYNCTVLAYGATGAGKTHTMLGSADEPGVMYLTMLHLYKCMDEIKEEKICSTAVSYLEVYNEQIRDLLVNSGPLAVREDTQKGVVVHGLTLHQPKSSEEILHLLDNGNKNRTQHPTDMNATSSRSHAVFQIYLRQQDKTASINQNVRIAKMSLIDLAGSERASTSGAKGTRFVEGTNINRSLLALGNVINALADSKRKNQHIPYRNSKLTRLLKDSLGGNCQTIMIAAVSPSSVFYDDTYNTLKYANRAKDIKSSLKSNVLNVNNHITQYVKICNEQKAEILLLKEKLKAYEEQKAFTNENDQAKLMISNPQEKEIERFQEILNCLFQNREEIRQEYLKLEMLLKENELKSFYQQQCHKQIEMMCSEDKVEKATGKR"

# Continued, binder first:
row,Binder,binding
1,"His6-GFP-KIF15-FL (protein, UniProt Q9NS87 1-1388) MAPGCKTELRSVTNGQSNQPSNEGDAIKVFVRIRPPAERSGSADGEQNLCLSVLSSTSLRLHSNPEPKTFTFDHVADVDTTQESVFATVAKSIVESCMSGYNGTIFAYGQTGSGKTFTMMGPSESDNFSHNLRGVIPRSFEYLFSLIDREKEKAGAGKSFLCKCSFIEIYNEQIYDLLDSASAGLYLREHIKKGVFVVGAVEQVVTSAAEAYQVLSGGWRNRRVASTSMNRESSRSHAVFTITIESMEKSNEIVNIRTSLLNLVDLAGSERQKDTHAEGMRLKEAGNINRSLSCLGQVITALVDVGNGKQRHVCYRDSKLTFLLRDSLGGNAKTAIIANVHPGSRCFGETLSTLNFAQRAKLIKNKAVVNEDTQGNVSQLQAEVKRLKEQLAELASGQTPPESFLTRDKKKTNYMEYFQEAMLFFKKSEQEKKSLIEKVTQLEDLTLKKEKFIQSNKMIVKFREDQIIRLEKLHKESRGGFLPEEQDRLLSELRNEIQTLREQIEHHPRVAKYAMENHSLREENRRLRLLEPVKRAQEMDAQTIAKLEKAFSEISGMEKSDKNQQGFSPKAQKEPCLFANTEKLKAQLLQIQTELNNSKQEYEEFKELTRKRQLELESELQSLQKANLNLENLLEATKACKRQEVSQLNKIHAETLKIITTPTKAYQLHSRPVPKLSPEMGSFGSLYTQNSSILDNDILNEPVPPEMNEQAFEAISEELRTVQEQMSALQAKLDEEEHKNLKLQQHVDKLEHHSTQMQELFSSERIDWTKQQEELLSQLNVLEKQLQETQTKNDFLKSEVHDLRVVLHSADKELSSVKLEYSSFKTNQEKEFNKLSERHMHVQLQLDNLRLENEKLLESKACLQDSYDNLQEIMKFEIDQLSRNLQNFKKENETLKSDLNNLMELLEAEKERNNKLSLQFEEDKENSSKEILKVLEAVRQEKQKETAKCEQQMAKVQKLEESLLATEKVISSLEKSRDSDKKVVADLMNQIQELRTSVCEKTETIDTLKQELKDINCKYNSALVDREESRVLIKKQEVDILDLKETLRLRILSEDIERDMLCEDLAHATEQLNMLTEASKKHSGLLQSAQEELTKKEALIQELQHKLNQKKEEVEQKKNEYNFKMRQLEHVMDSAAEDPQSPKTPPHFQTHLAKLLETQEQEIEDGRASKTSLEHLVTKLNEDREVKNAEILRMKEQLREMENLRLESQQLIEKNWLLQGQLDDIKRQKENSDQNHPDNQQLKNEQEESIKERLAKSKIVEEMLKMKADLEEVQSALYNKEMECLRMTDEVERTQTLESKAFQEKEQLRSKLEEMYEERERTSQEMEMLRKQVECLAEENGKLVGHQNLHQKIQYVVRLKKENVRLAEETEKLRAENVFLKEKKRSES",no binding (tested: 135 nM of kinesin)
2,"KIF18A-FL-GFP-His6 (protein, UniProt Q8NI77 1-898) MSVTEEDLCHHMKVVVRVRPENTKEKAAGFHKVVHVVDKHILVFDPKQEEVSFFHGKKTTNQNVIKKQNKDLKFVFDAVFDETSTQSEVFEHTTKPILRSFLNGYNCTVLAYGATGAGKTHTMLGSADEPGVMYLTMLHLYKCMDEIKEEKICSTAVSYLEVYNEQIRDLLVNSGPLAVREDTQKGVVVHGLTLHQPKSSEEILHLLDNGNKNRTQHPTDMNATSSRSHAVFQIYLRQQDKTASINQNVRIAKMSLIDLAGSERASTSGAKGTRFVEGTNINRSLLALGNVINALADSKRKNQHIPYRNSKLTRLLKDSLGGNCQTIMIAAVSPSSVFYDDTYNTLKYANRAKDIKSSLKSNVLNVNNHITQYVKICNEQKAEILLLKEKLKAYEEQKAFTNENDQAKLMISNPQEKEIERFQEILNCLFQNREEIRQEYLKLEMLLKENELKSFYQQQCHKQIEMMCSEDKVEKATGKRDHRLAMLKTRRSYLEKRREEELKQFDENTNWLHRVEKEMGLLSQNGHIPKELKKDLHCHHLHLQNKDLKAQIRHMMDLACLQEQQHRQTEAVLNALLPTLRKQYCTLKEAGLSNAAFESDFKEIEHLVERKKVVVWADQTAEQPKQNDLPGISVLMTFPQLGPVQPIPCCSSSGGTNLVKIPTEKRTRRKLMPSPLKGQHTLKSPPSQSVQLNDSLSKELQPIVYTPEDCRKAFQNPSTVTLMKPSSFTTSFQAISSNINSDNCLKMLCEVAIPHNRRKECGQEDLDSTFTICEDIKSSKCKLPEQESLPNDNKDILQRLDPSSFSTKHSMPVPSMVPSYMAMTTAAKRKRKLTSSTSNSSLTADVNSGFAKRVRQDNSSEKHLQENKPTMEHKRNICKINPSMVRKFGRNISKGNLR",binds
